The source of these data is paper PMC2386117.

Sequences of proteins named here, by UniProt entry; tags and fusion partners are left off. A change or cut given only in a name is not applied to a line headed by its entry.
UniProt P13010: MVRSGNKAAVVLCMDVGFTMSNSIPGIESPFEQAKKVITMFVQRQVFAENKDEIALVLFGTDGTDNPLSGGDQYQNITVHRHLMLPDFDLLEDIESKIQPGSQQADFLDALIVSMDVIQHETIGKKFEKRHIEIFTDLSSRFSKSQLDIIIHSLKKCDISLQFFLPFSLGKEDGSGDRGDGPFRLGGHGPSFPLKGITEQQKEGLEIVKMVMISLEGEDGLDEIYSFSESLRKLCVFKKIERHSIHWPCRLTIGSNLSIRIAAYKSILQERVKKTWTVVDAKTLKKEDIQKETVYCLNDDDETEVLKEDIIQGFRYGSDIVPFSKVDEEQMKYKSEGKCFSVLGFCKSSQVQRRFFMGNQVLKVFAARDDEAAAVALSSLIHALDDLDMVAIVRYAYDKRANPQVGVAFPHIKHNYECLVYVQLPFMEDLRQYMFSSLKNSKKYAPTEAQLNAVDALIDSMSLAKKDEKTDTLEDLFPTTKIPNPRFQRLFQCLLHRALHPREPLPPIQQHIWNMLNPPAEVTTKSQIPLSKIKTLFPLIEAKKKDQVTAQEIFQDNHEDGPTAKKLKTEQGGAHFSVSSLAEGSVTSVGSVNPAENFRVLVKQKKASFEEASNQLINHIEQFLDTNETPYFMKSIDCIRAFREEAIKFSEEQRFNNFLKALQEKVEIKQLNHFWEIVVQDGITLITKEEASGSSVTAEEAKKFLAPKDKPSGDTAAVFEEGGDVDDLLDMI

The series addresses Ku86 (full-length, 86 kDa) (human) (UniProt P13010). Briefly: EMSA. Particulars: CESS cell extract, only full-length Ku86 complex found; 4 ug extract, 20 fmol biotin-DNA in 20 uL, 2.5% glycerol, 5 mM MgCl2, 50 ng/uL poly(dI-dC), 0.05% NP-40, room temperature 30 min; 5% native PAGE in 0.5x TBE; protein in an extract; residues 1-732; label: biotin at 5' ends (unlabeled as competitor). A general note: In EMSA bound probe runs differently from free probe, usually more slowly.

For at least one entry, the source does not settle the construct or the ends of the probe. At least one result comes from cells or an extract, where the contact may be indirect. At least one verdict rests on a figure or table, not on a statement of the authors.

As for “ACTTGATTAGTTACGTAACGTTATG (double strand) [25-bp Ku86 binding oligonucleotide]”, the binding result is on record as “binds”.
